Record: PubChem BioAssay AID1259267 (Sanger Institute, 2017)

Test: 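Essential and drug-synergistic knock-downs in GP5D bowel cancer cells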 (primary screen)
System: human GP5D colorectal cancer cells
Reagent: siRNA pool against human genes
Treatment: anchor drugs at low dose: BYL719 1 µM, cetuximab 5 µg/ml, trametinib 10 nM, or DMSO vehicle
Measurement: 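Mean replicate viability versus non-targeting pool, given as knock-down-alone robust z-score, DMSO fraction, and synergy with low-dose BYL719, cetuximab or trametinib (1 µM, 5 µg/ml, 10 nM)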
Direction: robust z-score, knock-down alone: higher = more viable cells
Call rule: 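Active (essential alone) if knock-down without drug gives robust z-score under -3; drug synergy does not count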
Calls: active = essential alone; inactive = not essential
Here is one part, drawn at random, of 794 reagents tested. 9 of them (1.1%) count as active. 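Viability capped at 1; calls reflect loss of viability from knock-down alone, not synergy with drugs.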 Unmarked entries are inactive. Not all columns of the deposit are shown. Not given: the amount of reagent, the time to read-out.

| gene symbol | robust z-score, knock-down alone |
| --- | --- |
| MYLK4 | 0.817 |
| BMPR1A | 0.183 |
| TNK2 | 0.295 |
| SMG1 | -2.25 |
| MOS | 0.817 |
| DYRK4 | 0.817 |
| CAMKK1 | 0.607 |
| PRKCSH | 0.633 |
| CRKL | 0.817 |
| BMX | 0.705 |
| ABL1 | 0.817 |
| KCNH8 | 0.817 |
| CDK4 | 0.0889 |

Already shown: 2 of the entries above.
| gene symbol | robust z-score, knock-down alone |
| --- | --- |
| SMG1 | -2.25 |
| MOS | 0.817 |

Continued:
| gene symbol | robust z-score, knock-down alone |
| --- | --- |
| PRKAB1 | -0.94 |
| DGKH | 0.817 |
| GRK1 | 0.237 |
| LMTK3 | -1.91 |
| ALPK3 | 0.817 |
| CDK2 | 0.528 |
| FN3KRP | -2.72 |
